Laboratory results: patent US7928206B2 (priority 2002, dated 2011)
Like-named read-outs stand apart in the source and are kept apart here. The name of at least one read-out is uncertain.

Experiments:
[1] = substrate Thd; data from Le Breton 2002 (*) or Kokoris and Black 2002 (**); cited from earlier work
[2] = Kinetic constants of purified recombinant TK, substrate AZT

rHSV1-TK: recombinant human Herpes simplex virus type 1 thymidine kinase
kcat/Km [1]: 1200000 M⁻¹ s⁻¹
kcat/Km [2]: 16500 M⁻¹ s⁻¹
